# Measured values: PubChem BioAssay (EPA / NIEHS)
# Amino acid sequences for entries named in this document (tags omitted). A change or cut given only in a name is not applied to a line headed by its entry.
# UniProt P11712, whole entry, looked up: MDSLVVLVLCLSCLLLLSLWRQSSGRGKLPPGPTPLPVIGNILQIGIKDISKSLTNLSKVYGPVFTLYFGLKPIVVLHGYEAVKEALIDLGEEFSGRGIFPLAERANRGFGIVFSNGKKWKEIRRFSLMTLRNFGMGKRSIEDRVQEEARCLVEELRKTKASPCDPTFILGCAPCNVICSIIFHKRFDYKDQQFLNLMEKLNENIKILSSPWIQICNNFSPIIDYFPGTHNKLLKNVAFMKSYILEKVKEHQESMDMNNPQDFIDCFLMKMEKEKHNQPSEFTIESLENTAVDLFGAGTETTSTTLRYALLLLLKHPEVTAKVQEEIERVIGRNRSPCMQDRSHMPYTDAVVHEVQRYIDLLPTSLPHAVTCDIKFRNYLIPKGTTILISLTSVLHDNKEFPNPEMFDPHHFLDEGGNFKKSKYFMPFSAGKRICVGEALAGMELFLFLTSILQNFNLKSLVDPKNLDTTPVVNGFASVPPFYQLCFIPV
# UniProt P56817: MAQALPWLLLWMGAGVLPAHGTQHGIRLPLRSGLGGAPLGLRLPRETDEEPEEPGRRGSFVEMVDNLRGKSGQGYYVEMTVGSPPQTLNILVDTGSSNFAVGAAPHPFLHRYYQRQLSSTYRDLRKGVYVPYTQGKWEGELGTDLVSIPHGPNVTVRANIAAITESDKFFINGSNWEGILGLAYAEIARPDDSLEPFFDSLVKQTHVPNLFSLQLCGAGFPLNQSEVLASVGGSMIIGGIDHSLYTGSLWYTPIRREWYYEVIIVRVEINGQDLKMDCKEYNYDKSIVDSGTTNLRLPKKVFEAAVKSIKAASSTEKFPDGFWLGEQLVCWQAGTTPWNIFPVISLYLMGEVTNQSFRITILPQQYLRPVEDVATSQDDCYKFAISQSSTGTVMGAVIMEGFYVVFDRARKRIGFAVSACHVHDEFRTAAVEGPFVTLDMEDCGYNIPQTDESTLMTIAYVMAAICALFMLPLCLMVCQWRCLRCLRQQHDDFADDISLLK
# UniProt P17948, whole entry, looked up: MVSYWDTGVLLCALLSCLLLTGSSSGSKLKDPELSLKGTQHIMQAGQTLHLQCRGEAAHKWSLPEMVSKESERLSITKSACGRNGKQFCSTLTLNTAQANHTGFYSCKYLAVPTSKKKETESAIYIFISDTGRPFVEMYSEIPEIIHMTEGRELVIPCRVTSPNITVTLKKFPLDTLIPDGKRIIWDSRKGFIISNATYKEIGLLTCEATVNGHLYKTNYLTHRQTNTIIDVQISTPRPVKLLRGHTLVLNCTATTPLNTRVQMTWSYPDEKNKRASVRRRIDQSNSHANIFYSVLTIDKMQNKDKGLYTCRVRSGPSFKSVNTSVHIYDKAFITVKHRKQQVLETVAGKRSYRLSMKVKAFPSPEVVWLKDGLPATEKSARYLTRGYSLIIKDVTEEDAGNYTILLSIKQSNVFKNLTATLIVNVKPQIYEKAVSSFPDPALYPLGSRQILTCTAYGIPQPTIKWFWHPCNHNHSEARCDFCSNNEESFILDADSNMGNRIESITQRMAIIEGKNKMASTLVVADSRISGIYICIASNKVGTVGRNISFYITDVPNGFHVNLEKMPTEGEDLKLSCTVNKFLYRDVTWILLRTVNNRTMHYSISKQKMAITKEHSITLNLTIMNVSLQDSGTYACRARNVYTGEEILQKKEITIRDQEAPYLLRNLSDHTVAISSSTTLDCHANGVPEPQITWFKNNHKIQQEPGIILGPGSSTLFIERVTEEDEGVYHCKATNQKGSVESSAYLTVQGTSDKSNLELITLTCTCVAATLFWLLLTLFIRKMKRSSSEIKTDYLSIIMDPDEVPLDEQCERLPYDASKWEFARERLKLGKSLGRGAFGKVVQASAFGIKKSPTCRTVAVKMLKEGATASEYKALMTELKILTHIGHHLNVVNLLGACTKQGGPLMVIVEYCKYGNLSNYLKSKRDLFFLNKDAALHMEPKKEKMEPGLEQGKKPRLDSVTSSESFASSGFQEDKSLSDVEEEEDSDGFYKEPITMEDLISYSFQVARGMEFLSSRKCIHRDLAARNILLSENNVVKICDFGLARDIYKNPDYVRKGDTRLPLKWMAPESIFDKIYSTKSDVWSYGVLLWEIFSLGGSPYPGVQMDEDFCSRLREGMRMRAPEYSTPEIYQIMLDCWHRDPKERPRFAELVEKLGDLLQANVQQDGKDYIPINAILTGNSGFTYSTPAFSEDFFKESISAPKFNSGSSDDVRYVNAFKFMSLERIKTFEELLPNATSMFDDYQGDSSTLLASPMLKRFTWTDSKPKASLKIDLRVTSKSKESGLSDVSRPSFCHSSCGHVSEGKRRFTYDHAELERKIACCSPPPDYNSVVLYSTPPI
# UniProt P35372, whole entry, looked up: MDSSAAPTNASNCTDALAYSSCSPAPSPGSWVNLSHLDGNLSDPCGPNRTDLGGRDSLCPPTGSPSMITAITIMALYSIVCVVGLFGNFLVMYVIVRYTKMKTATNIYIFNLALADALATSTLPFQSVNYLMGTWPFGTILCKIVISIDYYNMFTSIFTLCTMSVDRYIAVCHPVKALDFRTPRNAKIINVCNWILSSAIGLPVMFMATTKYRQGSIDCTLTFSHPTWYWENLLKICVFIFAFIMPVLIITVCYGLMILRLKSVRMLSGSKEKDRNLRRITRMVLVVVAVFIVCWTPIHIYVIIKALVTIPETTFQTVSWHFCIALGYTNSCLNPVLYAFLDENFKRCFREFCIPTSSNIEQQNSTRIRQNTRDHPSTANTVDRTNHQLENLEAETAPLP
# UniProt O70528: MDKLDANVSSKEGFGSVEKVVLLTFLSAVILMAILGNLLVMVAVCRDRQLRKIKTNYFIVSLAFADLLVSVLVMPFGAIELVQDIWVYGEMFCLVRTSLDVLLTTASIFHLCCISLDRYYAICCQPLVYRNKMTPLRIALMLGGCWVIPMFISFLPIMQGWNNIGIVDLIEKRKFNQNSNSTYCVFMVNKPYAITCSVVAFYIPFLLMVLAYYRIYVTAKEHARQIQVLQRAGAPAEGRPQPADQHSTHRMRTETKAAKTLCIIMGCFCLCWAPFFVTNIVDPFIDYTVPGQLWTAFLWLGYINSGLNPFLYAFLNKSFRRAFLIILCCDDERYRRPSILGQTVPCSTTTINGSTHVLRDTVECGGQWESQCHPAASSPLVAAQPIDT
# UniProt P22909, whole entry, looked up: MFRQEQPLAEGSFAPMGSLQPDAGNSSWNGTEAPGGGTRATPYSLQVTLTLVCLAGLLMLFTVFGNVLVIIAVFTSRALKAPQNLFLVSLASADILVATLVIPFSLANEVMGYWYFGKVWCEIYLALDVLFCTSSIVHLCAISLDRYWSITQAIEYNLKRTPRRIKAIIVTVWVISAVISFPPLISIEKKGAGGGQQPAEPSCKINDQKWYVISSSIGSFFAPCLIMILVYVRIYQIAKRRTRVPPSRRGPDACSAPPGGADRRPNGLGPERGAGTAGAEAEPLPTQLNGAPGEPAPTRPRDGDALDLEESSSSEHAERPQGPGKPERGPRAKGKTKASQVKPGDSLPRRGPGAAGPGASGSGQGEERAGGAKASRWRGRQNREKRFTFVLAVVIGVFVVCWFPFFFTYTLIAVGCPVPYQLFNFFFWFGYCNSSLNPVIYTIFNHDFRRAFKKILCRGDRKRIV
# UniProt P28646: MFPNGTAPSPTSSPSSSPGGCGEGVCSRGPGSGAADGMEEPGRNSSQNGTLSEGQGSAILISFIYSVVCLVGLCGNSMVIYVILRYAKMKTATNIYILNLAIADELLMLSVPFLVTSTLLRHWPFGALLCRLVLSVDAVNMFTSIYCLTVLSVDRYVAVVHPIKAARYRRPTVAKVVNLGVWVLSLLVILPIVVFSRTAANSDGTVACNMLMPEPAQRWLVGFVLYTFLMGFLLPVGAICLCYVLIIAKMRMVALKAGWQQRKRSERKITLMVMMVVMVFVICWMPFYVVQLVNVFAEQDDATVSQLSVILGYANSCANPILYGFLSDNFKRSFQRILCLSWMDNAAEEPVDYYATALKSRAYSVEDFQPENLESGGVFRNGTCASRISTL
# Where “and” joins values, the source holds several entries; their conditions need not be identical. Identical values can stand only once. For some assays here: What follows is the remainder of the data, with few or none of the hits. Records with an inconclusive call do not appear. A structure can be active in one record and inactive in another. Only a part is listed here, and it is no random draw. Calls of active or inactive are those of the source. How the source made its calls, unless noted: active means hit-call score of the fitted dose curve at least 0.9, where 1 is the maximum; inactive means score below 0.9.
# Columns and labels:
# [1] = read-out: Pselectin, SELP (gene 6403); assay: BSK_4H_Pselectin: BioMAP Diversity Plus: 4H Assay for Pselectin Biomarker Activity (AID 2283026); conditions: actives raise or lower the signal; primary human endothelial cells (HUVEC)
# Outline: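 ELISA read-out of P-selectin on human umbilical vein endothelium after 24 h of dosing. Values derive from bidirectional fitting relative to DMSO. Parallel SRB protein staining flagged overt cytotoxicity.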
# [2] = BSK_BE3C_SRB: Viability Assessment in the BioMAP Diversity Plus: BE3C Assay (AID 2283028); conditions: primary human bronchial epithelial cells
# Outline: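 Human primary bronchial epithelial cells were exposed to test chemicals for 24 h. Total protein in parallel cultures was then measured by staining with 0.1% sulforhodamine B after 10% TCA fixation, with absorbance read at 560 nm. Activity was fitted bidirectionally against DMSO.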
# [3] = read-out: Vascular endothelial growth factor receptor 2 (Homo sapiens) (UniProt P35968); assay: BSK_4H_VEGFRII: BioMAP Diversity Plus: 4H Assay for Vascular endothelial growth factor receptor 2 (VEGFR2) Biomarker Activity (AID 2283031); conditions: actives raise or lower the signal; primary human endothelial cells (HUVEC)
# Outline: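 Primary human umbilical vein endothelial cells in the BioMAP 4H system were dosed with test chemical, and 24 h later VEGFRII was measured by ELISA. Activity was fitted bidirectionally against DMSO as negative control and baseline.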
# [4] = read-out: Monokine induced gamma interferon (MIG), CXCL9 (gene 4283); assay: BSK_BE3C_MIG: BioMAP Diversity Plus: BE3C Assay for Monokine induced gamma interferon (MIG) Biomarker Activity (AID 2283035); conditions: actives raise or lower the signal; primary human bronchial epithelial cells;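 further: MIG protein measured by ELISA in BE3C cultures after 24 h of dosing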
# Outline: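 MIG level was determined by ELISA after 24 h chemical treatment of primary human bronchial epithelial cells. Values were fitted bidirectionally with DMSO as the negative control and activity baseline.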
# [5] = read-out: Plasminogen activator inhibitor-1 (PAI1), SERPINE1 (gene 5054); assay: BSK_BE3C_PAI1: BioMAP Diversity Plus: BE3C Assay for Plasminogen activator inhibitor-1 (PAI1) Biomarker Activity (AID 2283037); conditions: actives raise or lower the signal; primary human bronchial epithelial cells
# Outline: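 Primary human lung bronchial epithelial cells; chemical dosing; 24 h; PAI-1 measured by ELISA; bidirectional fit referenced to DMSO as negative control.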
# [6] = read-out: Interleukin-8 (IL8), CXCL8 (gene 3576); assay: BSK_CASM3C_IL8: BioMAP Diversity Plus: CASM3C Assay for Interleukin-8 (IL8) Biomarker Activity (AID 2283042); conditions: actives raise or lower the signal; primary human coronary artery smooth muscle cells;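 further: IL-8 protein level quantified by ELISA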
# [7] = read-out: Human Leukocyte Antigen - DR isotype (HLADR), HLA-DRA (gene 3122); assay: BSK_CASM3C_HLADR: BioMAP Diversity Plus: CASM3C Assay for Human Leukocyte Antigen - DR isotype (HLADR) Biomarker Activity (AID 2283043); conditions: actives raise or lower the signal; primary human coronary artery smooth muscle cells;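 further: cell-surface HLA-DR protein level quantified by ELISA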
# [8] = BSK_CASM3C_Proliferation: Cell Proliferation Assessment in the BioMAP Diversity Plus: CASM3C Assay (AID 2283047); conditions: primary human coronary artery smooth muscle cells;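 further: sulforhodamine B total protein stain as relative cell number at 560 nm; sub-confluent cells exposed 48 h before staining; fitted both ways against DMSO so gain or loss of cell number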
# [9] = BSK_hDFCGF_Proliferation: Cell Proliferation Assessment in the BioMAP Diversity Plus: hDFCGF Assay (AID 2283059); conditions: primary human foreskin fibroblasts;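 further: curves fitted for both rise and fall of signal versus DMSO baseline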
# Outline: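 Primary human foreskin fibroblasts, sub-confluent; […]; 10% TCA fix, 0.1% SRB stain, A560 total protein. Gain/loss fitted bidirectionally vs DMSO control.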
# [10] = read-out: Intercellular Adhesion Molecule 1 (ICAM1), ICAM1 (gene 3383); assay: BSK_KF3CT_ICAM1: BioMAP Diversity Plus: KF3CT Assay for Intercellular Adhesion Molecule 1 (ICAM1) Biomarker Activity (AID 2283067); conditions: actives raise or lower the signal; primary human keratinocytes with fibroblasts
# Outline: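 Human keratinocyte plus foreskin fibroblast primary co-culture was exposed to chemical for 24 h. ICAM-1 was then quantified by ELISA, and the data were fit bidirectionally against DMSO as the negative control and baseline.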
# [11] = read-out: Transforming growth factor beta 1 (TGFb1), TGFB1 (gene 7040); assay: BSK_KF3CT_TGFb1: BioMAP Diversity Plus: KF3CT Assay for Transforming growth factor beta 1 (TGFb1) Biomarker Activity (AID 2283072); conditions: actives raise or lower the signal; primary human keratinocytes with fibroblasts
# Outline: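 Primary human skin cells (keratinocytes, foreskin fibroblasts) were co-cultured, exposed to test chemical and sampled at 24 h. TGF-b1 levels were measured by ELISA and fitted bidirectionally relative to DMSO.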
# [12] = read-out: Vascular cell adhesion molecule 1 (VCAM1), VCAM1 (gene 7412); assay: BSK_LPS_VCAM1: BioMAP Diversity Plus: LPS Assay for Vascular cell adhesion molecule 1 (VCAM1) Biomarker Activity (AID 2283086); conditions: actives raise or lower the signal; primary human HUVEC with PBMC
# Outline: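 HUVEC + PBMC co-culture, LPS system; compound 24 h; VCAM-1 by ELISA; bidirectional fit vs DMSO control; parallel SRB (0.1%, TCA-fixed, 560 nm) for cytotoxicity.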
# [13] = BSK_SAg_PBMCCytotoxicity: PBMC Cytotoxicity Assessment in the BioMAP Diversity Plus: SAg Assay (AID 2283093); conditions: primary human HUVEC with PBMC;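 further: PBMC viability measured as Alamar Blue reduction fluorescence at 546/580 nm; fitted both ways against DMSO so a hit may be loss or gain of signal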
# Outline: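 Compound added to 75,000 PBMC/well for 1 h; SEB and TSST-1 then added at 20 ng/mL final each; 90 h incubation; Alamar Blue 6 h; read 546/580 nm ex/em. Activity fitted bidirectionally relative to DMSO baseline.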
# [14] = target: human CYP2C9, CYP2C9 (gene 1559) (UniProt P11712); assay: NVS_ADME_hCYP2C9: NovaScreen (NVS) CYP450-related Enzyme Activity (ADME) Assay for human CYP2C9 (AID 2283108; active means hit-call score of the fitted dose curve at least 0.9, where 1 is the maximum)
# Outline: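 Fluorescence readout of CYP2C9 activity (SF9-expressed human enzyme) at 0.75 h. The primary screen used 10 uM in duplicate, with concentration-response follow-up for actives; acetonitrile was the negative control.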
# [15] = target: human Beta-secretase (BACE), BACE1 (gene 23621) (UniProt P56817); assay: NVS_ENZ_hBACE: NovaScreen (NVS) Enzymatic Assay for human Beta-secretase (BACE) (AID 2283140; active means hit-call score of the fitted dose curve at least 0.9, where 1 is the maximum;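 further: hits are inhibitors that reduce fluorescent substrate signal versus DMSO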)
# [16] = target: human Vascular Endothelial Growth Factor Receptor 1 (VEGFR1), FLT1 (gene 2321) (UniProt P17948); assay: NVS_ENZ_hVEGFR1: NovaScreen (NVS) Enzymatic Assay for human Vascular Endothelial Growth Factor Receptor 1 (VEGFR1) (AID 2283226; active means hit-call score of the fitted dose curve at least 0.9, where 1 is the maximum)
# [17] = target: human Opioid Receptor Mu (Opiate Mu), OPRM1 (gene 4988) (UniProt P35372); assay: NVS_GPCR_hOpiate_mu: NovaScreen (NVS) G Protein-Coupled Receptor Assay for human Opioid Receptor Mu (Opiate Mu) (AID 2283290; active means hit-call score of the fitted dose curve at least 0.9, where 1 is the maximum;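 further: hits lower bound tracer signal versus DMSO meaning displacement of the ligand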)
# Outline: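 Radioligand displacement binding on membranes from CHO cells expressing the receptor, 2.5 h after dosing, filter-based scintillation counting; loss of signal vs DMSO baseline. Screened in duplicate at 25 uM, actives then run in concentration series.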
# [18] = target: guinea pig Serotonin, 5-Hydroxytryptamine Receptor 4 (5HT4), HTR4 (gene 100135548) (UniProt O70528); assay: NVS_GPCR_g5HT4: NovaScreen (NVS) G Protein-Coupled Receptor Assay for guinea pig Serotonin, 5-Hydroxytryptamine Receptor 4 (5HT4) (AID 2283294; active means hit-call score of the fitted dose curve at least 0.9, where 1 is the maximum)
# [19] = target: rat Adrenergic Receptor, Alpha 2 (Adra2), Non-selective Binding, Adra2a (gene 25083) (UniProt P22909); assay: NVS_GPCR_rAdra2_NonSelective: NovaScreen (NVS) G Protein-Coupled Receptor Assay for rat Adrenergic Receptor, Alpha 2 (Adra2), Non-selective Binding (AID 2283299; active means hit-call score of the fitted dose curve at least 0.9, where 1 is the maximum)
# Outline: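 Rat cortical membranes, radioligand competitive displacement read by filter-based scintillation counting 1.25 hours after dosing. Primary screen in duplicate at 25 uM; actives followed up in concentration series.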
# [20] = target: rat Somatostatin Receptor (SST), Sstr1 (gene 25033) (UniProt P28646); assay: NVS_GPCR_rSST: NovaScreen (NVS) G Protein-Coupled Receptor Assay for rat Somatostatin Receptor (SST) (AID 2283314; active means hit-call score of the fitted dose curve at least 0.9, where 1 is the maximum)
# Outline: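 Rat forebrain membranes; radioligand displacement read by filter-based scintillation counting 1 h after dosing. Primary screen in duplicate at 25 uM. Actives (e.g., 30% inhibition) were rerun as concentration-response to 50 uM max and fitted against DMSO.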
smiles,measurement,setting,value
S=C(S)NCCNC(=S)S.[Mn+2].[S-]C([S-])=NCCN=C([S-])[S-].[Zn+2],outcome,[1],inactive
same,outcome,[2],inactive
same,outcome,[3],inactive
same,outcome,[4],inactive
same,outcome,[5],inactive
same,outcome,[6],inactive
same,outcome,[7],inactive
same,outcome,[8],inactive
same,AC50,[9],active: 12.8 µM
same,outcome,[10],inactive
same,outcome,[11],inactive
same,AC50,[12],active: 10 µM and active: 13.4 µM
same,outcome,[13],inactive
same,AC50,[14],active: 1.79 µM
same,AC50,[15],active: 15.5 µM
same,AC50,[16],active: 16.5 µM
same,outcome,[17],inactive
same,outcome,[18],inactive
same,AC50,[19],active: 16.8 µM
same,AC50,[20],active: 10.1 µM
